Experimental data taken from US20230024652A1 (NATIONAL MARINE BIODIVERSITY INSTITUTE OF KOREA, priority 2020, published 2023).
Some peptides are written in HELM: one residue between dots, names in brackets for other building blocks, links after the first $.

Assay: peptide made by a vendor
Conditions: whole synthesis

For “PEPTIDE1{G.W.L.I.R.G.A.I.H.A.G.K.A.I.H.G.L.I.H.R.R.R.H}$$$$V2.0”, the “final purity (method not given)” value was 92.5%.
